Results: the supplement of paper PMC8728848
Some of the results follow.

Tests used:
Assay in all cases: glycan array binding signal (z-score within array); higher = stronger binding
Conditions in all cases: glycan notation: IUPAC condensed, linker removed
[1] = biological target: GlcNAc(a1-6)Gal(b1-4)GlcNAc
Summary of the method: (§1)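 Negative Z-scores can be read as non-binding. The Z-score is calculated within each array and then averaged across arrays of one protein sequence at different concentrations or buffers and across linkers. Arrays, 3228 in all, were curated from the Consortium for Functional Glycomics database and kept only where the protein sequence was available.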

[2] = biological target: GlcNAc(b1-2)Gal(b1-3)GalNAc
Summary of the method: as §1

[3] = biological target: GlcNAc(b1-2)Man(a1-3)[GlcNAc(b1-2)Man(a1-6)]Man(b1-4)GlcNAc(b1-4)GlcNAc
Summary of the method: as §1

[4] = biological target: GlcNAc(b1-2)Man(a1-3)[GlcNAc(b1-2)Man(a1-6)]Man(b1-4)GlcNAc(b1-4)[Fuc(a1-6)]GlcNAc
Summary of the method: as §1

[5] = biological target: GlcNAc(b1-2)Man(a1-3)[GlcNAc(b1-4)][GlcNAc(b1-2)Man(a1-6)]Man(b1-4)GlcNAc(b1-4)GlcNAc
Summary of the method: as §1

[6] = biological target: GlcNAc(b1-2)Man(a1-3)[GlcNAc(b1-4)][GlcNAc(b1-2)Man(a1-6)]Man(b1-4)GlcNAc(b1-4)[Fuc(a1-6)]GlcNAc
Summary of the method: as §1

[7] = biological target: GlcNAc(b1-2)[GlcNAc(b1-4)]Man(a1-3)[GlcNAc(b1-2)Man(a1-6)]Man(b1-4)GlcNAc(b1-4)GlcNAc
Summary of the method: as §1

[8] = biological target: GlcNAc(b1-2)[GlcNAc(b1-4)]Man(a1-3)[GlcNAc(b1-4)][GlcNAc(b1-2)Man(a1-6)]Man(b1-4)GlcNAc(b1-4)GlcNAc
Summary of the method: as §1

[9] = biological target: GlcNAc(b1-2)[GlcNAc(b1-4)]Man(a1-3)[GlcNAc(b1-4)][GlcNAc(b1-2)[GlcNAc(b1-6)]Man(a1-6)]Man(b1-4)GlcNAc(b1-4)GlcNAc
Summary of the method: as §1

[10] = biological target: GlcNAc(b1-2)[GlcNAc(b1-4)]Man(a1-3)[GlcNAc(b1-4)][GlcNAc(b1-2)[GlcNAc(b1-6)]Man(a1-6)]Man(b1-4)GlcNAc(b1-4)[Fuc(a1-6)]GlcNAc
Summary of the method: as §1

[11] = biological target: GlcNAc(b1-2)[GlcNAc(b1-6)]Man(a1-6)[GlcNAc(b1-2)Man(a1-3)]Man(b1-4)GlcNAc(b1-4)GlcNAc
Summary of the method: as §1

[12] = biological target: GlcNAc(b1-2)[GlcNAc(b1-6)]Man(a1-6)[GlcNAc(b1-2)Man(a1-3)]Man(b1-4)GlcNAc(b1-4)[Fuc(a1-6)]GlcNAc
Summary of the method: as §1

[13] = biological target: GlcNAc(b1-2)[GlcNAc(b1-6)]Man(a1-6)[GlcNAc(b1-4)][GlcNAc(b1-2)Man(a1-3)]Man(b1-4)GlcNAc(b1-4)GlcNAc
Summary of the method: as §1

GlcNAc(b1-3)Fuc = biological target: GlcNAc(b1-3)Fuc
Summary of the method: as §1

GlcNAc(b1-3)Gal = biological target: GlcNAc(b1-3)Gal
Summary of the method: as §1

[14] = biological target: GlcNAc(b1-3)Gal(b1-3)GalNAc
Summary of the method: as §1

GlcNAc(b1-3)Gal(b1-4)Glc = biological target: GlcNAc(b1-3)Gal(b1-4)Glc
Summary of the method: as §1

[15] = biological target: GlcNAc(b1-3)Gal(b1-4)GlcNAc
Summary of the method: as §1

[16] = biological target: GlcNAc(b1-3)Gal(b1-4)GlcNAc(b1-2)Man(a1-3)[GlcNAc(b1-3)Gal(b1-4)GlcNAc(b1-2)Man(a1-6)]Man(b1-4)GlcNAc(b1-4)GlcNAc
Summary of the method: as §1

[17] = biological target: GlcNAc(b1-3)Gal(b1-4)GlcNAc(b1-2)Man(a1-3)[GlcNAc(b1-3)Gal(b1-4)GlcNAc(b1-2)Man(a1-6)]Man(b1-4)GlcNAc(b1-4)[Fuc(a1-6)]GlcNAc
Summary of the method: as §1

[18] = biological target: GlcNAc(b1-3)Gal(b1-4)GlcNAc(b1-2)[GlcNAc(b1-3)Gal(b1-4)GlcNAc(b1-6)]Man(a1-6)[GlcNAc(b1-3)Gal(b1-4)GlcNAc(b1-2)Man(a1-3)]Man(b1-4)GlcNAc(b1-4)GlcNAc
Summary of the method: as §1

[19] = biological target: GlcNAc(b1-3)Gal(b1-4)GlcNAc(b1-3)Gal(b1-4)GlcNAc
Summary of the method: as §1

[20] = biological target: GlcNAc(b1-3)Gal(b1-4)GlcNAc(b1-3)Gal(b1-4)GlcNAc(b1-2)Man(a1-3)[GlcNAc(b1-3)Gal(b1-4)GlcNAc(b1-3)Gal(b1-4)GlcNAc(b1-2)Man(a1-6)]Man(b1-4)GlcNAc(b1-4)GlcNAc
Summary of the method: as §1

[21] = biological target: GlcNAc(b1-3)Gal(b1-4)GlcNAc(b1-3)Gal(b1-4)GlcNAc(b1-2)Man(a1-3)[GlcNAc(b1-3)Gal(b1-4)GlcNAc(b1-3)Gal(b1-4)GlcNAc(b1-2)Man(a1-6)]Man(b1-4)GlcNAc(b1-4)[Fuc(a1-6)]GlcNAc
Summary of the method: as §1

[22] = biological target: GlcNAc(b1-3)Gal(b1-4)GlcNAc(b1-3)Gal(b1-4)GlcNAc(b1-2)[GlcNAc(b1-3)Gal(b1-4)GlcNAc(b1-3)Gal(b1-4)GlcNAc(b1-6)]Man(a1-6)[GlcNAc(b1-3)Gal(b1-4)GlcNAc(b1-3)Gal(b1-4)GlcNAc(b1-2)Man(a1-3)]Man(b1-4)GlcNAc(b1-4)[Fuc(a1-6)]GlcNAc
Summary of the method: as §1

[23] = biological target: GlcNAc(b1-3)Gal(b1-4)GlcNAc(b1-3)Gal(b1-4)GlcNAc(b1-3)Gal(b1-4)GlcNAc(b1-2)Man(a1-3)[GlcNAc(b1-3)Gal(b1-4)GlcNAc(b1-3)Gal(b1-4)GlcNAc(b1-3)Gal(b1-4)GlcNAc(b1-2)Man(a1-6)]Man(b1-4)GlcNAc(b1-4)GlcNAc
Summary of the method: as §1

[24] = biological target: GlcNAc(b1-3)Gal(b1-4)GlcNAc(b1-3)Gal(b1-4)GlcNAc(b1-3)Gal(b1-4)GlcNAc(b1-2)Man(a1-3)[GlcNAc(b1-3)Gal(b1-4)GlcNAc(b1-3)Gal(b1-4)GlcNAc(b1-3)Gal(b1-4)GlcNAc(b1-2)Man(a1-6)]Man(b1-4)GlcNAc(b1-4)[Fuc(a1-6)]GlcNAc
Summary of the method: as §1

[25] = biological target: GlcNAc(b1-3)Gal(b1-4)GlcNAc(b1-3)Gal(b1-4)GlcNAc(b1-3)Gal(b1-4)GlcNAc(b1-2)[GlcNAc(b1-3)Gal(b1-4)GlcNAc(b1-3)Gal(b1-4)GlcNAc(b1-3)Gal(b1-4)GlcNAc(b1-6)]Man(a1-6)[GlcNAc(b1-3)Gal(b1-4)GlcNAc(b1-3)Gal(b1-4)GlcNAc(b1-3)Gal(b1-4)GlcNAc(b1-2)Man(a1-3)]Man(b1-4)GlcNAc(b1-4)[Fuc(a1-6)]GlcNAc
Summary of the method: as §1

[26] = biological target: GlcNAc(b1-3)Gal(b1-4)GlcNAc(b1-3)Gal(b1-4)GlcNAc(b1-3)Gal(b1-4)GlcNAc(b1-3)Gal(b1-4)GlcNAc(b1-2)Man(a1-3)[GlcNAc(b1-3)Gal(b1-4)GlcNAc(b1-3)Gal(b1-4)GlcNAc(b1-3)Gal(b1-4)GlcNAc(b1-3)Gal(b1-4)GlcNAc(b1-2)Man(a1-6)]Man(b1-4)GlcNAc(b1-4)GlcNAc
Summary of the method: as §1

[27] = biological target: GlcNAc(b1-3)Gal(b1-4)GlcNAc(b1-3)Gal(b1-4)GlcNAc(b1-3)Gal(b1-4)GlcNAc(b1-3)Gal(b1-4)GlcNAc(b1-2)Man(a1-3)[GlcNAc(b1-3)Gal(b1-4)GlcNAc(b1-3)Gal(b1-4)GlcNAc(b1-3)Gal(b1-4)GlcNAc(b1-3)Gal(b1-4)GlcNAc(b1-2)Man(a1-6)]Man(b1-4)GlcNAc(b1-4)[Fuc(a1-6)]GlcNAc
Summary of the method: as §1

[28] = biological target: GlcNAc(b1-3)Gal(b1-4)GlcNAc(b1-3)Gal(b1-4)GlcNAc(b1-3)Gal(b1-4)GlcNAc(b1-3)Gal(b1-4)GlcNAc(b1-2)[GlcNAc(b1-3)Gal(b1-4)GlcNAc(b1-3)Gal(b1-4)GlcNAc(b1-3)Gal(b1-4)GlcNAc(b1-3)Gal(b1-4)GlcNAc(b1-6)]Man(a1-6)[GlcNAc(b1-3)Gal(b1-4)GlcNAc(b1-3)Gal(b1-4)GlcNAc(b1-3)Gal(b1-4)GlcNAc(b1-3)Gal(b1-4)GlcNAc(b1-2)Man(a1-3)]Man(b1-4)GlcNAc(b1-4)[Fuc(a1-6)]GlcNAc
Summary of the method: as §1

[29] = biological target: GlcNAc(b1-3)Gal(b1-4)GlcNAc(b1-3)Gal(b1-4)GlcNAc(b1-3)GalNAc
Summary of the method: as §1

[30] = biological target: GlcNAc(b1-3)Gal(b1-4)GlcNAc(b1-3)GalNAc
Summary of the method: as §1

[31] = biological target: GlcNAc(b1-3)Gal(b1-4)GlcNAc(b1-3)[GlcNAc(b1-3)Gal(b1-4)GlcNAc(b1-3)]GalNAc
Summary of the method: as §1

[32] = biological target: GlcNAc(b1-3)Gal(b1-4)GlcNAc(b1-6)[Gal(b1-3)]GalNAc
Summary of the method: as §1

[33] = biological target: GlcNAc(b1-3)Gal(b1-4)GlcNAc(b1-6)[GlcNAc(b1-3)Gal(b1-3)]GalNAc
Summary of the method: as §1

[34] = biological target: GlcNAc(b1-3)Gal(b1-4)GlcNAc(b1-6)[GlcNAc(b1-3)]Gal(b1-4)GlcNAc
Summary of the method: as §1

GlcNAc(b1-3)GalNAc = biological target: GlcNAc(b1-3)GalNAc
Summary of the method: as §1

GlcNAc(b1-3)Man = biological target: GlcNAc(b1-3)Man
Summary of the method: as §1

[35] = biological target: GlcNAc(b1-3)[GlcNAc(b1-4)][GlcNAc(b1-6)]GlcNAc
Summary of the method: as §1

[36] = biological target: GlcNAc(b1-3)[GlcNAc(b1-6)]Gal(b1-4)GlcNAc
Summary of the method: as §1

[37] = biological target: GlcNAc(b1-3)[GlcNAc(b1-6)]GalNAc
Summary of the method: as §1

[38] = biological target: GlcNAc(b1-4)Gal(b1-4)GlcNAc
Summary of the method: as §1

GlcNAc(b1-4)GlcNAc = biological target: GlcNAc(b1-4)GlcNAc
Summary of the method: as §1

[39] = biological target: GlcNAc(b1-4)GlcNAc(b1-4)GlcNAc
Summary of the method: as §1

B1: cFel (Cyprinus carpio), P68512 (protein)
chain: LDCTVIDGNLKQIDAGSGSVVGVNNLNETFVLIDNVFTKISGSLKHFSVGPAGQLGVNTANNIFKYQSGGFVQLAGLLKQVDAGGDQIIAGVNMYDDIYCLNMDANNKWPSSNTPWVQINGKLKYYSCGPYSCWGVNSNDQIFIMKDVSSNVCSGSGSFINIPGLLSMIEVATDGSVFGVNSQGNLYQRTGVTRSKPDGTDWISMVACPNGHKHVSFDLGVLWLVCVDGSIRKCILTD
glycan array binding signal (z-score) [1]: -1.17 | glycan array binding signal (z-score) [2]: -0.824 | glycan array binding signal (z-score) [3]: -0.445 | glycan array binding signal (z-score) [4]: 1.58 | glycan array binding signal (z-score) [5]: 1.34 | glycan array binding signal (z-score) [6]: 0.224 | glycan array binding signal (z-score) [7]: -0.869 | glycan array binding signal (z-score) [8]: -0.631 | glycan array binding signal (z-score) [9]: -0.197 | glycan array binding signal (z-score) [10]: -0.704 | glycan array binding signal (z-score) [11]: 0.788 | glycan array binding signal (z-score) [12]: -0.14 | glycan array binding signal (z-score) [13]: -0.817 | glycan array binding signal (z-score) (GlcNAc(b1-3)Fuc): 0.739 | glycan array binding signal (z-score) (GlcNAc(b1-3)Gal): -0.231 | glycan array binding signal (z-score) [14]: 1.35 | glycan array binding signal (z-score) (GlcNAc(b1-3)Gal(b1-4)Glc): -0.98 | glycan array binding signal (z-score) [15]: -0.197 | glycan array binding signal (z-score) [16]: -0.579 | glycan array binding signal (z-score) [17]: -0.543 | glycan array binding signal (z-score) [18]: 0.381 | glycan array binding signal (z-score) [19]: -1.22 | glycan array binding signal (z-score) [20]: -0.105 | glycan array binding signal (z-score) [21]: -0.502 | glycan array binding signal (z-score) [22]: -0.253 | glycan array binding signal (z-score) [23]: 1.23 | glycan array binding signal (z-score) [24]: -0.724 | glycan array binding signal (z-score) [25]: -1.07 | glycan array binding signal (z-score) [26]: -0.732 | glycan array binding signal (z-score) [27]: 2.52 | glycan array binding signal (z-score) [28]: 0.968 | glycan array binding signal (z-score) [29]: 1.09 | glycan array binding signal (z-score) [30]: 1.45 | glycan array binding signal (z-score) [31]: -1.53 | glycan array binding signal (z-score) [32]: 1.15 | glycan array binding signal (z-score) [33]: -1.47 | glycan array binding signal (z-score) [34]: 0.717 | glycan array binding signal (z-score) (GlcNAc(b1-3)GalNAc): 0.09 | glycan array binding signal (z-score) (GlcNAc(b1-3)Man): 3.22 | glycan array binding signal (z-score) [35]: -0.332 | glycan array binding signal (z-score) [36]: -0.455 | glycan array binding signal (z-score) [37]: 0.368 | glycan array binding signal (z-score) [38]: -0.469 | glycan array binding signal (z-score) (GlcNAc(b1-4)GlcNAc): -0.102 | glycan array binding signal (z-score) [39]: -1.42
